Results taken from PMC10332018.
Results are given in words; binding and its absence hold for the method and conditions named. Binding seen in cells or lysates may run through a third protein. A result given as binding can be weak or reduced; the word gives no strength.

Protein sequences, listed by entry. Tags and fused reporters are not part of them. Lines headed by an entry give the natural chain unless they say otherwise; changes in a name come on top. Residues count along the entry.
UniProt P23443, residues 24-525: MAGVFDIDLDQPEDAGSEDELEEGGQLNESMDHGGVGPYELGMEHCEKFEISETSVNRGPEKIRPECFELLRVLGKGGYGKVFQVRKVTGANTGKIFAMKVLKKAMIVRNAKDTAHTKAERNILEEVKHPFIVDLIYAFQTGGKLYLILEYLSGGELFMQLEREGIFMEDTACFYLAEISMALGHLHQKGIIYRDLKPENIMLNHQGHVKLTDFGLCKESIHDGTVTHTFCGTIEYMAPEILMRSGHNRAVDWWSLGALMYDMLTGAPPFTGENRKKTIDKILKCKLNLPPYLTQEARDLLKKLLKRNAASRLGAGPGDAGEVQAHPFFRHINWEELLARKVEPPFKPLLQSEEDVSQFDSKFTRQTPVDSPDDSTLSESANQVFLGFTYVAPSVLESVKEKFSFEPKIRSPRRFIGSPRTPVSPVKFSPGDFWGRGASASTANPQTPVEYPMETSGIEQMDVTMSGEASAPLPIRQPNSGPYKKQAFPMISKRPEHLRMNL
UniProt P67775: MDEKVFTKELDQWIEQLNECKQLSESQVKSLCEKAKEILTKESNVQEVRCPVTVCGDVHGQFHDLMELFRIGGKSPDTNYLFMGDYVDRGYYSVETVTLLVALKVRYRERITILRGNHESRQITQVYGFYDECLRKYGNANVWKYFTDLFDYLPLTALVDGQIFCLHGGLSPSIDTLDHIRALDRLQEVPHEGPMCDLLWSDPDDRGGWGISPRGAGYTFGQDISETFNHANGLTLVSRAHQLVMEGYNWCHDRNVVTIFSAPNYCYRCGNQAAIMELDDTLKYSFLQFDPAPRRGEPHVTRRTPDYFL

Columns and labels:
Flag-p70S6K [1] = molecular target: Flag-p70S6K (UniProt P23443); assay: co-IP; lysates of HEK293 cells transfected with Flag-p70S6K only, immunoprecipitated by anti-FLAG-Sepharose; endogenous partners detected by Western blot
Flag-p70S6K [2] = molecular target: Flag-p70S6K (UniProt P23443); assay: co-IP; lysates of HEK293 cells co-transfected with 4HA-B56γ3 and Flag-p70S6K, immunoprecipitated by anti-FLAG-Sepharose; Western blot; isotonic IP buffer

endogenous PP2A C subunit (from UniProt P67775) (enzyme)
binding (Flag-p70S6K [1]): binds
binding (Flag-p70S6K [2]): binds
